# Source: PMC12095548
# Amino acid sequences for entries named in this document (tags omitted).
# UniProt P42945: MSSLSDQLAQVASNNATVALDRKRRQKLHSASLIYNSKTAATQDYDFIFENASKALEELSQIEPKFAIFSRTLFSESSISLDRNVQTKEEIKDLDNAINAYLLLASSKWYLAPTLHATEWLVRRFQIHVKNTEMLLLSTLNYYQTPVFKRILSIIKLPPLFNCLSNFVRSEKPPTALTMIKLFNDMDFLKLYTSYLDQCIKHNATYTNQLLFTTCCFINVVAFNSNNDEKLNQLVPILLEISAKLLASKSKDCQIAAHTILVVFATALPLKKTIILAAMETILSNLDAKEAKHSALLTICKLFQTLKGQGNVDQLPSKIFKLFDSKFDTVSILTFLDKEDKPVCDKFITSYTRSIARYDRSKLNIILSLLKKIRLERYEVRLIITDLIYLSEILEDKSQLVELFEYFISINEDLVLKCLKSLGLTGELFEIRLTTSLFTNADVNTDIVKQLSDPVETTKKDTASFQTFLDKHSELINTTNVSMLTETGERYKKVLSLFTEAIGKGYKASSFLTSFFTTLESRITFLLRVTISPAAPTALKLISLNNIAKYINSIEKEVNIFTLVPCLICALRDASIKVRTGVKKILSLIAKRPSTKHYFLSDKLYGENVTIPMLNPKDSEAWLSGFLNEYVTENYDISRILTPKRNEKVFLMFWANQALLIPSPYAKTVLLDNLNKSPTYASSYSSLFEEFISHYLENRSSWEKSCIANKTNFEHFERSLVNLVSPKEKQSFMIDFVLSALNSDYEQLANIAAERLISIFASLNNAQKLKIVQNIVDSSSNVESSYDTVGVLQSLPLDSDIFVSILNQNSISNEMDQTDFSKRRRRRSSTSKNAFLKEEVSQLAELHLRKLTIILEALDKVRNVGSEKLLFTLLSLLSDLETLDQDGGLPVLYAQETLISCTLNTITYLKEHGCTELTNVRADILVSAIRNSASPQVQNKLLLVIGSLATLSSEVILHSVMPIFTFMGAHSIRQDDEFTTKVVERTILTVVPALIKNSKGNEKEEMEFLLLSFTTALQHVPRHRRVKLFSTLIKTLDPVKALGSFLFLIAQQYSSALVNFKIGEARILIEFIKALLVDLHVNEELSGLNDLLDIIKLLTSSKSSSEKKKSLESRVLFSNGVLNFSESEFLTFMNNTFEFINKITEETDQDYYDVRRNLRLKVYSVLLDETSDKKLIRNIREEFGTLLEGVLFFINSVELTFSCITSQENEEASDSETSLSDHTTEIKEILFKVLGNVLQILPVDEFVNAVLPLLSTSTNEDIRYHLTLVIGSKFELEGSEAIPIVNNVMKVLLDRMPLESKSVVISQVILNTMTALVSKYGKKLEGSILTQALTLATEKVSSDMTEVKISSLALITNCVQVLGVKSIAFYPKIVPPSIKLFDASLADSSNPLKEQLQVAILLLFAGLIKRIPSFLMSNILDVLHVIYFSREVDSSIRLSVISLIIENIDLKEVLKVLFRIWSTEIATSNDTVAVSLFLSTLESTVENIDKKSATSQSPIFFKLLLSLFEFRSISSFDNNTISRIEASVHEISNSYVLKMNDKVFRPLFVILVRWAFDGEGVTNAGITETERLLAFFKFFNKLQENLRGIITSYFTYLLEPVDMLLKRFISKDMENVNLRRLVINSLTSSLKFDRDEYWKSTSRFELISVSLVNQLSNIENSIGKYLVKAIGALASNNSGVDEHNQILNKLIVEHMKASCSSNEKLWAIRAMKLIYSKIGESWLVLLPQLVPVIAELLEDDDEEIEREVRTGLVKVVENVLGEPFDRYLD
# UniProt P25586: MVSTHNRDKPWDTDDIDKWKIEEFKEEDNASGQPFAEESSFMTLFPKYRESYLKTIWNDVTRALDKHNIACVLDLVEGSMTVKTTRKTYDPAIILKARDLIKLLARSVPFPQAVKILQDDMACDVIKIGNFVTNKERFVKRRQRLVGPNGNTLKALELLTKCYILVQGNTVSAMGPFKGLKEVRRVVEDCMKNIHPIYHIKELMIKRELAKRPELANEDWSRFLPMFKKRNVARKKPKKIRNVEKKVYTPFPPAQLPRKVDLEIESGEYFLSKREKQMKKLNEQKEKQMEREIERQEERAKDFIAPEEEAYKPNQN
# UniProt Q05022: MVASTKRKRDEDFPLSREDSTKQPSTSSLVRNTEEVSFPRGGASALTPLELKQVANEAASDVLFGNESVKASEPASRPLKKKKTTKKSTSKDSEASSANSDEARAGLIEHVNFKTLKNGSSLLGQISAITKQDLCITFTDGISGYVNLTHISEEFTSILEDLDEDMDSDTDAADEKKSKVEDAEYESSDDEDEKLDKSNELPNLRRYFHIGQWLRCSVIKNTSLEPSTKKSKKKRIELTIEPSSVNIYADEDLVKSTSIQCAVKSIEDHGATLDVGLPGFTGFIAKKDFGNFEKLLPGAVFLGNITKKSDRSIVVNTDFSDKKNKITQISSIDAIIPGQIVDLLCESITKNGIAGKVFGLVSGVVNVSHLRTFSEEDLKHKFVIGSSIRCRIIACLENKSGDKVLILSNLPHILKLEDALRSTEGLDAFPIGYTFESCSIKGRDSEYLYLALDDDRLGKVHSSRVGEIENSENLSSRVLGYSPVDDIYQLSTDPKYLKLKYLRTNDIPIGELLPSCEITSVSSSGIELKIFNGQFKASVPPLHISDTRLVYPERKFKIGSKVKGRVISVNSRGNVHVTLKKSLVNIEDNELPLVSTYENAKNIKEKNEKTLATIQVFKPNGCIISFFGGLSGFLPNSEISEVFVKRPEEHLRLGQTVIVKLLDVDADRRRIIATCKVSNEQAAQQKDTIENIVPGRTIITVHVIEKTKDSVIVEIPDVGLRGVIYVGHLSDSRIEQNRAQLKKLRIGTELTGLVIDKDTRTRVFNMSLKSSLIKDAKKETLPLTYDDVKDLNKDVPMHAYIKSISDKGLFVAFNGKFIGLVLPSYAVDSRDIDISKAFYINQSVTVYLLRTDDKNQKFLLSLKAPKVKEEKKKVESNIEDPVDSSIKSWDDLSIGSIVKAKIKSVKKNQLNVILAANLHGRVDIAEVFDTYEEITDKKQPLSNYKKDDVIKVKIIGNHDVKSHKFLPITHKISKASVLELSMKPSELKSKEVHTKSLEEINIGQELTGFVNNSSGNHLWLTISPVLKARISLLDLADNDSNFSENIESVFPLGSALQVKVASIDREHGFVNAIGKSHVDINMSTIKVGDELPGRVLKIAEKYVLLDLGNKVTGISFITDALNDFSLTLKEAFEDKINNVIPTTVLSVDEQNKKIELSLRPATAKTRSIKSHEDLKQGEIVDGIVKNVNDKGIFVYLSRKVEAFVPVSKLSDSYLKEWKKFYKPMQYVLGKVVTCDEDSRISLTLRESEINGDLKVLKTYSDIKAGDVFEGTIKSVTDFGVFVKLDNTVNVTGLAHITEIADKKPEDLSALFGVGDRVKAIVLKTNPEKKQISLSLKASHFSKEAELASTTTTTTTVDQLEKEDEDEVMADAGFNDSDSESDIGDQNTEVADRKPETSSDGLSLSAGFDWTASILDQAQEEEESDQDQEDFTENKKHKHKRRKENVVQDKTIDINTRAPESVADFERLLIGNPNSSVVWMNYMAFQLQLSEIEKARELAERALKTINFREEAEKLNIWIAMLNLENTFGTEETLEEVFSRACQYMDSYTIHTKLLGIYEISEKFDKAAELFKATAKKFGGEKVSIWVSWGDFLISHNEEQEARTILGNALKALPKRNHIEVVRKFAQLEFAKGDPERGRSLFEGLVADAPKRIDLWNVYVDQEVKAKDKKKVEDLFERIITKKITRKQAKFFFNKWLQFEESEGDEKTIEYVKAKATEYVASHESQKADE
# T1: Kri1-FTpA (Saccharomyces cerevisiae (yeast)) (UniProt P42846)
# T1 sequence: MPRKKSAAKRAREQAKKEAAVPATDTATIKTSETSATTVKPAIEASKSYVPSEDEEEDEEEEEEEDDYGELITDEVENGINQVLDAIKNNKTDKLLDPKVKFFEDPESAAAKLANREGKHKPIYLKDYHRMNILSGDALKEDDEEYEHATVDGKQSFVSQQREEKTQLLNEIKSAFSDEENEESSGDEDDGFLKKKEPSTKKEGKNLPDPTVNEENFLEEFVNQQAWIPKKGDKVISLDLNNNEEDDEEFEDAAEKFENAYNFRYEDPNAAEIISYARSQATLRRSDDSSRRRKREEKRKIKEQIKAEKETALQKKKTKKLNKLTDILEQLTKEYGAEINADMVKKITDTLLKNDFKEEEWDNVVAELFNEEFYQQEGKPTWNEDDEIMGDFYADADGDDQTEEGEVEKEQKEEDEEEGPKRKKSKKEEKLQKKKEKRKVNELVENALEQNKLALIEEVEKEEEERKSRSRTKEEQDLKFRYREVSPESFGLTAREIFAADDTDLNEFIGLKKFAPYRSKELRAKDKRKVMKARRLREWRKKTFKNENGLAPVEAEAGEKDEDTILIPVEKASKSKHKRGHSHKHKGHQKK
# T2: Noc4-FTpA (Saccharomyces cerevisiae (yeast)) (UniProt Q06512)
# T2 sequence: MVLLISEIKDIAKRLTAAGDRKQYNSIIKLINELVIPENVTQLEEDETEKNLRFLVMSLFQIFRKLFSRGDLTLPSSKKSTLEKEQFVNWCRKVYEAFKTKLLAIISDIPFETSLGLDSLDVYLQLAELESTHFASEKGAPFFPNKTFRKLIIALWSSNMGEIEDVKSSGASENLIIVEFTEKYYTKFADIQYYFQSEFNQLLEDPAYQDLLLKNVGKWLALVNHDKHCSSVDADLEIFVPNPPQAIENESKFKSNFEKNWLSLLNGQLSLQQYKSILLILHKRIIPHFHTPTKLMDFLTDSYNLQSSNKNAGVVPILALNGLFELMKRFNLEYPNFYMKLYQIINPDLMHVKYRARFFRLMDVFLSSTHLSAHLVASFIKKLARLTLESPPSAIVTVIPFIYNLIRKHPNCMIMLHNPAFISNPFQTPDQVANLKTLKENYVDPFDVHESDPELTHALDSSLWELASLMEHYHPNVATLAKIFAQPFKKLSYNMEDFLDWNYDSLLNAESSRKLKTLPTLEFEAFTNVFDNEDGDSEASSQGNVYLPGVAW
# T3: Utp23-FTpA (Saccharomyces cerevisiae (yeast)) (UniProt Q12339)
# T3 sequence: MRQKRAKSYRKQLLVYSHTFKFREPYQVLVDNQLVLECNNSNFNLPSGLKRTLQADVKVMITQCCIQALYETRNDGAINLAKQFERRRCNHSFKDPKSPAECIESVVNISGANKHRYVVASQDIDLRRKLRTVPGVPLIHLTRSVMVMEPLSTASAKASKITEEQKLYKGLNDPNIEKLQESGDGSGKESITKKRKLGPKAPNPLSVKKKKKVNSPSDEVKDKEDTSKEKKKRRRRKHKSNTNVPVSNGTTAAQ
# T4: protA-TEV-tagged Utp23 (Saccharomyces cerevisiae (yeast)) (UniProt Q12339)
# T4 sequence: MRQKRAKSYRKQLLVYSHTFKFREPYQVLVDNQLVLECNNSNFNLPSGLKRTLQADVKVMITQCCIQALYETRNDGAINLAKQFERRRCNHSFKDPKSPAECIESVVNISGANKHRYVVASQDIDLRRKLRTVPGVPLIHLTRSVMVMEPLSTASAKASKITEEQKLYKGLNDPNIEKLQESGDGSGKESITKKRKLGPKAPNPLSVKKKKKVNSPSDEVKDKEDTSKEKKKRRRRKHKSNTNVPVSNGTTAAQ
# B1: Mrd1 (protein, UniProt Q06106 1-887)
# chain: MSRIIVKGLPVYLTDDNLREHFTKRLRQKHSHQAVNGSGPDLITDVKILRDRNGESRRFGFIGYRNEEDAFDAVEYFNGSFINTSKIEVSMAKSFADPRVPQPMKEKRREALKRFREKEEKLLQEENRKKKKVDENKHSNIDDEIRKNKQLQEFMETMKPSSQVTSWEKVGIDKSIEDEKLKREEEDSSVQGNSLLAHALALKEENNKDEAPNLVIENESDDEYSALNRNRDEDQEDAGEEEKMISISNLKDTDIGLVNDDANSDEKENEKRRNLAQDEKVSDLDWFKQRRVRIKESEAETREKSSSYATEQNESLDTKKEEQPERAVPQKTDEELAIEKINQTGRLFLRNILYTSKEEDFRKLFSPFGELEEVHVALDTRTGQSKGFAYVLFKDSKNAVNAYVELDKQIFQGRLLHILPGEEKKSHRLDEFDLKNMPLKKQKELKRKAAASRQTFSWNSLYMNQDAVLGSVAAKLGLEKSQLIDAENSSSAVKQALAEAHVIGDVRKYFESKGVDLTKFSQLKSTNQRDDKVILVKNFPFGTTREELGEMFLPYGKLERLLMPPAGTIAIVQFRDTTSARAAFTKLSYKRFKDGIIYLERGPKDCFTKPAEADDLINNTSAKEEENPVEVKPSSNDLMEANKDVTEGSSNAHDEDVIDGPTVSIFIKNLNFSTTNQNLTDRFKVFTGFVVAQVKTKPDPKHQGKTLSMGFGFVEFRTKEQANAVIAAMDGTVIDGHKIQLKLSHRQASQSGNTKTKSNKKSGKIIVKNLPFEATRKDVFELFNSFGQLKSVRVPKKFDKSARGFAFVEFLLPKEAENAMDQLHGVHLLGRRLVMQYAEEDAVDAEEEIARMTKKVRKQVATNEMAALRNGGGRKKLDVDDEENEGF
# B2: Nop9 (protein, UniProt P47077 1-666)
# chain: MGKTKTRGRRHQDKQRKDEFEPSSNSAKEHIQQEESTYNDEAEIKETQPQMFFGVLDREELEYFKQAESTLQLDAFEAPEEKFQFVTSIIEEAKGKELKLVTSQITSKLMERVILECDETQLKDIFQSFNGVFFGLSCHKYASHVLETLFVRSAALVERELLTPSFDNNEKEGPYVTMENMFLFMLNELKPHLKTMMNHQYASHVLRLLILILSSKTLPNSTKANSTLRSKKSKIARKMIDIKDNDDFNKVYQTPESFKSELRDIITTLYKGFTNGAESRSDISQSTITKFREYSVDKVASPVIQLIIQVEGIFDRDRSFWRLVFNTADEKDPKEESFLEYLLSDPVGSHFLENVIGSARLKYVERLYRLYMKDRIVKLAKRDTTGAFVVRALLEHLKEKDVKQILDAVVPELSMLLNSNMDFGTAIINASNKQGGYLRDDVIAQLIQKYYPEKSDAKNILESCLLLSASTLGNTRDDWPTAEERRRSVFLEQLIDYDDKFLNITIDSMLALPEERLIQMCYHGVFSHVVEHVLQTTRVDIIKRKMLLNILSKESVNLACNVYGSHIMDKLWEFTAKLTLYKERIARALVLETEKVKNSIYGRQVWKNWKLELYVRKMWDWKKLIKEQEFEIFPNSKPLQPKPEKHSRERNNSKEGSAFKKQKHYR
# Experiments:
# [1] = molecular target: T1, Kri1-FTpA (Saccharomyces cerevisiae (yeast)); assay: affinity purification with mass spectrometry; tandem affinity purification of an FTpA-tagged bait from yeast lysate (IgG Sepharose, TEV elution, FLAG agarose, FLAG peptide elution; 60 mM Tris-HCl pH 8.0, 50 mM NaCl, 40 mM KCl, 2 mM MgCl2); cells: wild type, krr1∆C1, or galactose-induced KRR1 or krr1∆C3; SDS-PAGE and semiquantitative MS
# [2] = molecular target: T2, Noc4-FTpA (Saccharomyces cerevisiae (yeast)); assay: as above
# [3] = molecular target: Utp10-FTpA (Saccharomyces cerevisiae (yeast)) (UniProt P42945); assay: as above
# [4] = molecular target: T3, Utp23-FTpA (Saccharomyces cerevisiae (yeast)); assay: as above
# [5] = molecular target: Krr1 (wild type, second bait of the split-tag purification) (Saccharomyces cerevisiae (yeast)) (UniProt P25586); assay: affinity purification with mass spectrometry; split-tag affinity purification from yeast lysate: Utp23 as first bait (IgG Sepharose, TEV elution), wild-type or mutant Krr1 as second bait (FLAG agarose, FLAG peptide elution); SDS-PAGE and semiquantitative MS
# [6] = molecular target: T4, protA-TEV-tagged Utp23 (Saccharomyces cerevisiae (yeast)); assay: as above
Molecule,binding [1],binding [2],binding [3],binding [4],binding [5],binding [6]
Rrp5 (from UniProt Q05022 1-1729),binds weakly,binds,binds,binds weakly,–,–
B1,–,–,–,–,binds,binds
B2,–,–,–,–,binds,binds

# These are yes or no findings as the source states them, for the method shown. Binding seen in cells or lysates may run through a third protein. Here binding means that the protein was enriched with, or labelled near, the bait; the list need not be complete. For some assays here: Tags and fused reporters may be left off the sequences shown.
